Experimental data as given in paper PMC6386418.
Changes are numbered by the printed parent chain. No constants are given. Whether binding was seen depends on the method and setting. In cells and extracts the contact can be indirect. For some of these results: Binding calls can cover weak binding; strength is not graded here. For some of these results: Where a sequence is shown, tags or fusion partners need not be part of it.

Amino acid sequences for entries named in this document (tags omitted). A change or cut given only in a name is not applied to a line headed by its entry.
UniProt Q4V3C8: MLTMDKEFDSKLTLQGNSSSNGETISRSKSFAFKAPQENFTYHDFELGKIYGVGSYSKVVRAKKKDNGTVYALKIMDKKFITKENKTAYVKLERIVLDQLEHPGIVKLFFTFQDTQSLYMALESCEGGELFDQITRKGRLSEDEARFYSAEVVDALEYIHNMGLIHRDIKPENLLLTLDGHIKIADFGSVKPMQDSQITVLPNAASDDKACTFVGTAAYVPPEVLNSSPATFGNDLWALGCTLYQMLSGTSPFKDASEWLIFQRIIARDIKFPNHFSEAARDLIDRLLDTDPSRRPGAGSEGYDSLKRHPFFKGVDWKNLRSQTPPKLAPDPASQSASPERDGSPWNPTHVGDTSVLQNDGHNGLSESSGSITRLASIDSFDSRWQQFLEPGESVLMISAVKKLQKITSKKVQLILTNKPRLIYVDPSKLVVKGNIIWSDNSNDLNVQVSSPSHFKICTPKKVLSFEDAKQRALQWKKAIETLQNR

Key:
Assay in all cases: split reporter; BiFC with split YFP (pSPYNE-35S / pSPYCE-35S) in Arabidopsis Col-0 mesophyll protoplasts; 21°C in the dark for 10 to 15 hours; confocal microscopy
[1] = biological target: T1, UCN:YFPC (UNICORN fused to the C-terminal part of YFP) (Arabidopsis thaliana) (UniProt Q9SYB9)
T1 sequence: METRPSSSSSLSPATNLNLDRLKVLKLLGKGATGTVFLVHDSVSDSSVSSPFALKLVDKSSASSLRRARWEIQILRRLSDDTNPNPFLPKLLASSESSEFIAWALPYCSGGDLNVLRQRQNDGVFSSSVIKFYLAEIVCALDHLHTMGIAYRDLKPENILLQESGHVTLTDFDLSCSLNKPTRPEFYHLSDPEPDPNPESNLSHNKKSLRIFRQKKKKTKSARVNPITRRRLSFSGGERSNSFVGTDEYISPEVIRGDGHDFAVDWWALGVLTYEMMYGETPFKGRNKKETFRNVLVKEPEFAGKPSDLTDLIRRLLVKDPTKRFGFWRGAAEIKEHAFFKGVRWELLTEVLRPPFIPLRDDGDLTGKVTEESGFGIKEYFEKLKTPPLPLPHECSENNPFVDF

[2] = biological target: T2, UCNKD:YFPC (UCN_(K55E)) (Arabidopsis thaliana) (UniProt Q9SYB9)
T2 sequence: T1 sequence with K55E

[3] = biological target: T3, UCN_(G165S):YFPC (Arabidopsis thaliana) (UniProt Q9SYB9)
T3 sequence: T1 sequence with G165S

[4] = biological target: T4, UCN_(KD/ΔPIF):YFPC (Arabidopsis thaliana) (UniProt Q9SYB9)
T4 sequence: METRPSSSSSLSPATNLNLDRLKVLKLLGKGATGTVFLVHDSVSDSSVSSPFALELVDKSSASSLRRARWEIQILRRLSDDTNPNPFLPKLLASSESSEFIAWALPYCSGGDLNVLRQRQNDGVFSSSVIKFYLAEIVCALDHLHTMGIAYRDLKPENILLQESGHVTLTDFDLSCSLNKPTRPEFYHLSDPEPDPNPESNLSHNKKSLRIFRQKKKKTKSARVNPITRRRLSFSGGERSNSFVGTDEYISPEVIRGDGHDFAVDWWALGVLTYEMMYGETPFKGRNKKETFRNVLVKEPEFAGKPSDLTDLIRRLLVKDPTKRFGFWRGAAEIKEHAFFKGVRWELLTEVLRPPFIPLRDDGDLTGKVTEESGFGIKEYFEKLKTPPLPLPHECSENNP

[5] = biological target: T5, UCN_(ΔPIF):YFPC (Arabidopsis thaliana) (UniProt Q9SYB9)
T5 sequence: T4 sequence with E55K

Row | binding [1] | binding [2] | binding [3] | binding [4] | binding [5] | Substance
1 | binds | no binding | no binding | no binding | no binding | PDK1.2:YFPN (PDK1.2 fused to the N-terminal part of YFP) (from UniProt Q4V3C8) (enzyme)
2 | no binding |  |  |  |  | YFPN (N-terminal part of YFP alone) (domain or fragment)
3 | no binding |  |  |  |  | PDK1.2KD (PDK1.2_(K74A)), BiFC fusion (from UniProt Q4V3C8) (enzyme)
